PubChem BioAssay AID1259308 | NCATS, 2017
In all, the deposit lists about 59,000 reagents; shown is a part drawn at random. Over the whole deposit, about 1,510 (2.6%) are marked active. 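Calls use total luciferase alone and ignore viability, so some active siRNAs may act by altering cell number.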 A number with no mark means an inactive call. Reagents against one gene are numbered here.

Purpose: 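Knock-downs that increase output of a recombinant reporter protein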 (primary screen)
System: human HEK293 embryonic kidney cells stably expressing firefly luciferase (HEK-CMV-Luc2-Hygro)
Reagent: single siRNA against human genes, 0.8 pmol siRNA per well
Timing: 72 h
Measurement: 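Luciferase light (ONE-Glo) measured on one replicate plate set and viability (CellTiter-Glo) on the other, scaled to a negative control siRNA, with robust z-scores and luciferase per cell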
Direction: total luciferase, z-score and total luciferase, % of control: higher = more reporter protein produced; luciferase per cell, z-score: higher = more reporter output per viable cell; viable cells, % of control: higher = more viable cells
Rule for the call: 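An siRNA counts as active if its total luciferase robust z-score exceeds 3; genes with two or more such siRNAs out of three were retested with fresh siRNAs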
Calls: active = raised luciferase; inactive = no rise

gene	reagent no.	total luciferase, z-score	total luciferase, % of control	luciferase per cell, z-score	viable cells, % of control
AMBN (ameloblastin)	1	-0.599	70	-0.0857	80
AMBN (ameloblastin)	2	-0.692	68.1	0.123	73.7
AMBN (ameloblastin)	3	-0.0668	80.6	-0.705	108
CFAP58 (cilia and flagella associated protein 58)	1	0.977	101	1.45	77.4
CFAP58 (cilia and flagella associated protein 58)	2	1.53	112	1.15	92.7
CFAP58 (cilia and flagella associated protein 58)	3	-1.03	61.4	-1.14	92.6
NEGR1 (neuronal growth regulator 1)	1	-2.1	40.2	-2.74	92.4
NEGR1 (neuronal growth regulator 1)	2	-2.96	23	-1.17	35
NEGR1 (neuronal growth regulator 1)	3	-0.402	73.9	-0.174	86.4
NOMO2 (NODAL modulator 2)	1	0.508	92	0.391	92.7
NOMO2 (NODAL modulator 2)	2	-0.143	79.1	-0.0404	89.3
NOMO2 (NODAL modulator 2)	3	0.247	86.8	-0.195	102
KIF11 (kinesin family member 11)	1	-1.89	44.4	-0.337	54.2
KIF11 (kinesin family member 11)	2	-2.22	37.6	-0.519	48.2
KIF11 (kinesin family member 11)	3	-1.96	43	-0.593	56.1
FAM151B (family with sequence similarity 151 member B)	1	0.782	97.4	0.403	97.9
FAM151B (family with sequence similarity 151 member B)	2	1.73	116	1.7	82.9
FAM151B (family with sequence similarity 151 member B)	3	0.193	85.7	-0.36	105
SPINDOC (spindlin interactor and repressor of chromatin binding)	1	2.99	141	2.72	77.2
SPINDOC (spindlin interactor and repressor of chromatin binding)	2	1.39	109	1.09	91.8
SPINDOC (spindlin interactor and repressor of chromatin binding)	3	1.71	116	2.04	75.6
SUMF2 (sulfatase modifying factor 2)	1	0.131	84.5	-0.154	98.3
SUMF2 (sulfatase modifying factor 2)	2	-0.614	69.7	-0.224	82.6
SUMF2 (sulfatase modifying factor 2)	3	1.19	106	0.728	97.4
AZU1 (azurocidin 1)	1	1.03	102	0.356	104
AZU1 (azurocidin 1)	2	0.67	95.2	1.03	81.2
AZU1 (azurocidin 1)	3	-0.816	65.7	-0.946	94.1
ETNK2 (ethanolamine kinase 2)	1	-0.624	69.5	-0.563	90
ETNK2 (ethanolamine kinase 2)	2	-0.436	73.2	-0.0258	82.4
ETNK2 (ethanolamine kinase 2)	3	1.49	112	1.13	92.5
SAMTOR (S-adenosylmethionine sensor upstream of mTORC1)	1	1.14	105	0.435	104
SAMTOR (S-adenosylmethionine sensor upstream of mTORC1)	2	0.217	86.2	0.0745	94.5
SAMTOR (S-adenosylmethionine sensor upstream of mTORC1)	3	2.46	131	1.74	92.5
IFNGR1 (interferon gamma receptor 1)	1	0.599	93.8	0.221	98.9
IFNGR1 (interferon gamma receptor 1)	2	1.14	104	0.306	108
IFNGR1 (interferon gamma receptor 1)	3	-0.114	79.6	-0.535	102
APOA1 (apolipoprotein A1)	1	-0.475	72.4	-0.459	91.3
APOA1 (apolipoprotein A1)	2	-0.202	77.9	-0.7	105
APOA1 (apolipoprotein A1)	3	0.558	93	0.867	82.7
HOXB8 (homeobox B8)	1	3.56 (active)	153	2.72	83.4
HOXB8 (homeobox B8)	2	-0.912	63.7	-0.349	78.1
HOXB8 (homeobox B8)	3	0.282	87.5	0.0452	96.6
EME1 (essential meiotic structure-specific endonuclease 1)	1	0.645	94.7	1	81.3
EME1 (essential meiotic structure-specific endonuclease 1)	2	2.16	125	2.26	77
EME1 (essential meiotic structure-specific endonuclease 1)	3	-0.365	74.6	-0.145	86.6
GABRG2 (gamma-aminobutyric acid type A receptor subunit gamma2)	1	-0.209	77.7	0.724	71.8
GABRG2 (gamma-aminobutyric acid type A receptor subunit gamma2)	2	-0.692	68.1	-1.08	101
GABRG2 (gamma-aminobutyric acid type A receptor subunit gamma2)	3	0.805	97.9	2.04	64
ALDH8A1 (aldehyde dehydrogenase 8 family member A1)	1	-0.724	67.5	0.276	70.1
ALDH8A1 (aldehyde dehydrogenase 8 family member A1)	2	-0.171	78.5	-0.753	107
ALDH8A1 (aldehyde dehydrogenase 8 family member A1)	3	0.188	85.6	0.423	85.6
PCDH11X (protocadherin 11 X-linked)	1	3.35 (active)	148	2.6	83.7
PCDH11X (protocadherin 11 X-linked)	2	-0.443	73.1	-0.084	83.5
PCDH11X (protocadherin 11 X-linked)	3	0.0312	82.5	0.463	81.6
PSMC3IP (PSMC3 interacting protein)	1	-0.0149	81.6	0.026	90.5
PSMC3IP (PSMC3 interacting protein)	2	-0.887	64.3	-0.513	82.2
PSMC3IP (PSMC3 interacting protein)	3	-0.101	79.9	0.0912	87.1

Ordered by “total luciferase, z-score” (high to low): 3 of the entries above
gene	reagent no.	total luciferase, z-score	total luciferase, % of control	luciferase per cell, z-score	viable cells, % of control
AMBN (ameloblastin)	3	-0.0668	80.6	-0.705	108
AMBN (ameloblastin)	1	-0.599	70	-0.0857	80
AMBN (ameloblastin)	2	-0.692	68.1	0.123	73.7
